ChEMBL document CHEMBL5465560, “Selectivity Literature for EUbOPEN Chemogenomic Library” (2024)

Chains of the proteins cited; added tags and fusions are not shown. Lines headed by an entry give the natural chain unless they say otherwise; changes in a name come on top.
UniProt O94921: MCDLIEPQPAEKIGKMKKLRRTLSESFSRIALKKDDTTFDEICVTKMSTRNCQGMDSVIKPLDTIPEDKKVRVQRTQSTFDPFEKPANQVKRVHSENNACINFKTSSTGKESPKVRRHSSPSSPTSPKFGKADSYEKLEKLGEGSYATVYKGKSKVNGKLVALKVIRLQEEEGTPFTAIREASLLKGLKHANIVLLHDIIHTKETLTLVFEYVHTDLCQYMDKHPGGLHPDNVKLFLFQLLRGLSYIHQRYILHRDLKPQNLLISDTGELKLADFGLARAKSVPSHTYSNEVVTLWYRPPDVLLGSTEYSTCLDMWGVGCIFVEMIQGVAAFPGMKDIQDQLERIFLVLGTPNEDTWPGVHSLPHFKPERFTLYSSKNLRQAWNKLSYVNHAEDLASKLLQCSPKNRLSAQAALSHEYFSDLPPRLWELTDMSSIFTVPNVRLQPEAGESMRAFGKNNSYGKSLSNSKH
UniProt P15056, whole entry: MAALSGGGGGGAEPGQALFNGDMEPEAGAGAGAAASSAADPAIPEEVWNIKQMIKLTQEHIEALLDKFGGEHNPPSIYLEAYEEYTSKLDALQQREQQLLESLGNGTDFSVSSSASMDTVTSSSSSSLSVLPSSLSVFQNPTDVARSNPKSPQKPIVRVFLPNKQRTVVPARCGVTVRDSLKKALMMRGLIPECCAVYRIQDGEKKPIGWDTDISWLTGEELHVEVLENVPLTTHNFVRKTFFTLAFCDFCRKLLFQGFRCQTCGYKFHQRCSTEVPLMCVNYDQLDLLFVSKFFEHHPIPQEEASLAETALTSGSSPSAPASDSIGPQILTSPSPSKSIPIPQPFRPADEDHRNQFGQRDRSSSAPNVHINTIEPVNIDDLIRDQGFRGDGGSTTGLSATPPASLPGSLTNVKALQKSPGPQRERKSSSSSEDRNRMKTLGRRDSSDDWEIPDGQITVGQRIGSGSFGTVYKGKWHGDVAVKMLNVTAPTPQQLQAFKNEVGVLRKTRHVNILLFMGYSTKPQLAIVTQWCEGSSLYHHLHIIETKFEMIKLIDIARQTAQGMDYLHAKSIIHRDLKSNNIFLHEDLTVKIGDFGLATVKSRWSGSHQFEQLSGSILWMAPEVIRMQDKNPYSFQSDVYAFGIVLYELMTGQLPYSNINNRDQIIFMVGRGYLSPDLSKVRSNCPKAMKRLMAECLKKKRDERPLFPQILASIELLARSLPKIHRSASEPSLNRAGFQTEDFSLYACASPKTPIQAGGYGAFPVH
UniProt P48730: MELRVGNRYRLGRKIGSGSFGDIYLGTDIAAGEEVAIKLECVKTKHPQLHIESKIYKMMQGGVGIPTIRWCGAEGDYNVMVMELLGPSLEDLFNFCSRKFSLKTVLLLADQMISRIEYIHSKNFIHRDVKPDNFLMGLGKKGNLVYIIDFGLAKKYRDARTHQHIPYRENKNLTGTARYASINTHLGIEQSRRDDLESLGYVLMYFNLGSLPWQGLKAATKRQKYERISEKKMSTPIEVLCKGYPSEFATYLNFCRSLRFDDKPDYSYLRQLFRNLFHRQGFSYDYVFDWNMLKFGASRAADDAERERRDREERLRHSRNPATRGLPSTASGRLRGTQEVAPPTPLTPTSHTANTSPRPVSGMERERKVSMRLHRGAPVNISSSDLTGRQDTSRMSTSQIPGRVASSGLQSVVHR
UniProt Q9BZL6: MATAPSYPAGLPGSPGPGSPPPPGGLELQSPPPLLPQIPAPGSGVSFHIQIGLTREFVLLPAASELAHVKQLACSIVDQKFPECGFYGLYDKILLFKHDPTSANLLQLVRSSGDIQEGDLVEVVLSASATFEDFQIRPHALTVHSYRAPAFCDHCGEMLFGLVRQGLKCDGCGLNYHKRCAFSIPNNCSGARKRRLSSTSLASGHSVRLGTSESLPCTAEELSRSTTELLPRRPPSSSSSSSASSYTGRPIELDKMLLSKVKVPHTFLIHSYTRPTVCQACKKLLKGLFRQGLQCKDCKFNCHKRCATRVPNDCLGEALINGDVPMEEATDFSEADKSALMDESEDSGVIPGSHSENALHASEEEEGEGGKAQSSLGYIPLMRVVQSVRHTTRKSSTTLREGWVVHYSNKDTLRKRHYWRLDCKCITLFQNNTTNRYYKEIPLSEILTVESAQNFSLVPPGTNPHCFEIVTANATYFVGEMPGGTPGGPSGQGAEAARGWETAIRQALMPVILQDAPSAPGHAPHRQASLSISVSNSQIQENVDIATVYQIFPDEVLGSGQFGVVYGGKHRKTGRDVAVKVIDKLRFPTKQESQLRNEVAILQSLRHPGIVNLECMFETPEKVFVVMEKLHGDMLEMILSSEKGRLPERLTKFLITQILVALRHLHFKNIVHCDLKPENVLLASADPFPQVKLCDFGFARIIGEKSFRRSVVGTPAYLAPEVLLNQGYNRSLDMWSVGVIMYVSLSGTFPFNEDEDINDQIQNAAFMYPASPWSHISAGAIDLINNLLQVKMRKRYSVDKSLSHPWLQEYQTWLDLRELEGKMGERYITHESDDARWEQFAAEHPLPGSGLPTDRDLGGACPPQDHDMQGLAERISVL
UniProt Q8NI60: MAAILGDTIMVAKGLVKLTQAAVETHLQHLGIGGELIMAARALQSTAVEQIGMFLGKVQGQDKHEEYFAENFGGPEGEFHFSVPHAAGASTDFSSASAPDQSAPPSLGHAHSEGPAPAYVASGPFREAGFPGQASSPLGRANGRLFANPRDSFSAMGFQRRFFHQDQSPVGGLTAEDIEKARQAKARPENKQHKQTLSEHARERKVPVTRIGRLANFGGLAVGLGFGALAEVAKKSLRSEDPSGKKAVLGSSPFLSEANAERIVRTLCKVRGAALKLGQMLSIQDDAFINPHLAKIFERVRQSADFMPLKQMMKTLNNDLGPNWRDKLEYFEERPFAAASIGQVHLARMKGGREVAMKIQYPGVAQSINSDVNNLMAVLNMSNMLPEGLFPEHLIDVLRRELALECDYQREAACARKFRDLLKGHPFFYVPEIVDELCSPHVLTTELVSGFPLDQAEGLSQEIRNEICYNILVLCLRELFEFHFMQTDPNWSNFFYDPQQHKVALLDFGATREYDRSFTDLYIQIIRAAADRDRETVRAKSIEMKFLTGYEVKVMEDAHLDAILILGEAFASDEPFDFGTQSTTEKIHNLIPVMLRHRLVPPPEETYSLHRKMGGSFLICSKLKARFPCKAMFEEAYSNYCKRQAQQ
UniProt Q9NRH2: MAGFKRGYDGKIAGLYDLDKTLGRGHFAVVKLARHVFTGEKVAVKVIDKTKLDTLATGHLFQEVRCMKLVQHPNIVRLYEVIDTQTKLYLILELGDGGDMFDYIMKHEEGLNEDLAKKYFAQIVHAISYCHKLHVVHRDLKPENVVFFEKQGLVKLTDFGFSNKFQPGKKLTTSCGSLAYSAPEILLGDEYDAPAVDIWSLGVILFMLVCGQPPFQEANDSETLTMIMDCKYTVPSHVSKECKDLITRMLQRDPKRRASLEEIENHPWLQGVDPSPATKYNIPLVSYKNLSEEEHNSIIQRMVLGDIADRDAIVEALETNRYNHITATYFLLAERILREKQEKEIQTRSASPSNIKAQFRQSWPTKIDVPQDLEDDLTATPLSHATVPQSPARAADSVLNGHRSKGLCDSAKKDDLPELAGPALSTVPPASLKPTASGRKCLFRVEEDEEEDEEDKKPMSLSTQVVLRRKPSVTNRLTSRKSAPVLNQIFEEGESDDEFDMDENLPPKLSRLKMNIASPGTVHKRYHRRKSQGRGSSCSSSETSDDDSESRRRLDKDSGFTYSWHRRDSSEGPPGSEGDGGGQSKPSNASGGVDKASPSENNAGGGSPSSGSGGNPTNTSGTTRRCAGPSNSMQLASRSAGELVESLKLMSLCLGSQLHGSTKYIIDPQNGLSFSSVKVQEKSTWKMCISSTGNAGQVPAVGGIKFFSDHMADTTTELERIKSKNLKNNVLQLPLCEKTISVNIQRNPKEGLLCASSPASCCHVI
UniProt O15146: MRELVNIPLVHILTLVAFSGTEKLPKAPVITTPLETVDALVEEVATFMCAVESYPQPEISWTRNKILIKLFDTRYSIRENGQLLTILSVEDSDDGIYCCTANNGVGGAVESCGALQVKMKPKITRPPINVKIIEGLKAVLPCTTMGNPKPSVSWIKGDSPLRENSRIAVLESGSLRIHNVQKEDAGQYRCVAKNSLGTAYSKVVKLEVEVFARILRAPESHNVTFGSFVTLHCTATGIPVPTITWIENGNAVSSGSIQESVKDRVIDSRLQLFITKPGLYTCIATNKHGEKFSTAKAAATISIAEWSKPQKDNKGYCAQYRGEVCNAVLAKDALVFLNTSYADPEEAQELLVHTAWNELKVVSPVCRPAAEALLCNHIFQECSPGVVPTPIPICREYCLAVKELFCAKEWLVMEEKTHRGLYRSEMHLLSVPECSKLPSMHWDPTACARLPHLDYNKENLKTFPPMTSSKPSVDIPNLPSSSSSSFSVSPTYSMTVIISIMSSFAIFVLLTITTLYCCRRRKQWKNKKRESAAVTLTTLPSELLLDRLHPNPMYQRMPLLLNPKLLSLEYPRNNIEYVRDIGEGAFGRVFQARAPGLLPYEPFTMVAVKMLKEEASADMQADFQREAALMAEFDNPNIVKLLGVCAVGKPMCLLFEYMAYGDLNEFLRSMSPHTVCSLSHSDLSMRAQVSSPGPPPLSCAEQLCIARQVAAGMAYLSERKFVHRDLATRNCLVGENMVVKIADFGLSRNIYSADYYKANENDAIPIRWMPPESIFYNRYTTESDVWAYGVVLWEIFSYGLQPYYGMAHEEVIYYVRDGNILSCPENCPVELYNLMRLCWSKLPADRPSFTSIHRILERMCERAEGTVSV
UniProt Q8WU08: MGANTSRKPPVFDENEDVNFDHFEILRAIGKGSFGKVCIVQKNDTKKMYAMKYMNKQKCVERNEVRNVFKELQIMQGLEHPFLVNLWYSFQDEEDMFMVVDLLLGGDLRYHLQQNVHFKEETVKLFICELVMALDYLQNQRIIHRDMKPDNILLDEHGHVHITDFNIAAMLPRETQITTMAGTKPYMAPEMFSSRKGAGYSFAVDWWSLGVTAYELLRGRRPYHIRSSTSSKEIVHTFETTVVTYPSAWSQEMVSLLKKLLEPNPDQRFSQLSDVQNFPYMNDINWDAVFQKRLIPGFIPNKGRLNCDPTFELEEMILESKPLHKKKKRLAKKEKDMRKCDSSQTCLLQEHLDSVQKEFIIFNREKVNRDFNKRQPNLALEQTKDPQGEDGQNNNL
UniProt P42684, whole entry: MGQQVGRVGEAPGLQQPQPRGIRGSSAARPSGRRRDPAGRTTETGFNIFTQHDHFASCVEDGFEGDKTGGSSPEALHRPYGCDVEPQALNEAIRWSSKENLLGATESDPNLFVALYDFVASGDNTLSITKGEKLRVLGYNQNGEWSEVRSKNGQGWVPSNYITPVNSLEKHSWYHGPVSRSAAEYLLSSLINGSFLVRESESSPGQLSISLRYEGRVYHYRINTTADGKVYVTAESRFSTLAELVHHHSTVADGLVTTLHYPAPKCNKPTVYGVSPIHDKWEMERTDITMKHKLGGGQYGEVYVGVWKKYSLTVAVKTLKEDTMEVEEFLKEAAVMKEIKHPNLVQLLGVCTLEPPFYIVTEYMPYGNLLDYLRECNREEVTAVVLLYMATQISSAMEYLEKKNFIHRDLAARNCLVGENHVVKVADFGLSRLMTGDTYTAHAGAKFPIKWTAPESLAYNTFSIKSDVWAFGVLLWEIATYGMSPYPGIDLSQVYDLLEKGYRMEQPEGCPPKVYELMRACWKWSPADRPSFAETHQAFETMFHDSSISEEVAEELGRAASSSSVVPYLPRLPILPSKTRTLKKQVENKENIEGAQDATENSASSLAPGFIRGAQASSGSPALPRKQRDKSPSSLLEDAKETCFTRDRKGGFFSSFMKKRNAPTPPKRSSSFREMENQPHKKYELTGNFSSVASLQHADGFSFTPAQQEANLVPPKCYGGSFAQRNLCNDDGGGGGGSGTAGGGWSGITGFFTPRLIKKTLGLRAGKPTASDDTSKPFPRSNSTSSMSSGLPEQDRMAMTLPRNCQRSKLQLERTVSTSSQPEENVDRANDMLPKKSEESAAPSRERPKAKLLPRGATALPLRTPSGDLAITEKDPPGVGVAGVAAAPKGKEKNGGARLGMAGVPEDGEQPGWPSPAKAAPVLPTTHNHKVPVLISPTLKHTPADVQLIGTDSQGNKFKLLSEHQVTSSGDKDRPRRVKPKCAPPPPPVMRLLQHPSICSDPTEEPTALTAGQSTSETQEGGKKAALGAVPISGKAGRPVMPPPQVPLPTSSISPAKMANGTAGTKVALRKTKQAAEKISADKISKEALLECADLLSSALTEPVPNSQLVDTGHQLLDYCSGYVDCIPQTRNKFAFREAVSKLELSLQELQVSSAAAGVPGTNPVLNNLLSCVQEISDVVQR

Tests used:
Conditions in all cases: at 1 µM
[1] = molecular target: Calcium/calmodulin-dependent protein kinase type 1D (Homo sapiens) (UniProt Q8IU85); assay: Selectivity interaction (KinomeScan (DiscoverX)) EUB0001581a CAMK1D
[2] = molecular target: Cyclin-dependent kinase 14 (Homo sapiens) (UniProt O94921); assay: Selectivity interaction (KinomeScan (DiscoverX)) EUB0001581a CDK14
[3] = molecular target: Eukaryotic translation initiation factor 2-alpha kinase 1 (Homo sapiens) (UniProt Q9BQI3); assay: Selectivity interaction (KinomeScan (DiscoverX)) EUB0001581a EIF2AK1
[4] = molecular target: Serine/threonine-protein kinase B-raf (Homo sapiens) (UniProt P15056); assay: (§1) Selectivity interaction (KinomeScan (DiscoverX)) EUB0001581a BRAF
[5] = system: Serine/threonine-protein kinase B-raf (Homo sapiens), P15056 [V600E]; assay: as §1
[6] = molecular target: Casein kinase I isoform delta (Homo sapiens, UniProt P48730); assay: Selectivity interaction (KinomeScan (DiscoverX)) EUB0001581a CSNK1D
[7] = molecular target: Phosphatidylinositol 4,5-bisphosphate 3-kinase catalytic subunit delta isoform (Homo sapiens) (UniProt O00329); assay: Selectivity interaction (KinomeScan (DiscoverX)) EUB0001581a PIK3CD
[8] = molecular target: Macrophage colony-stimulating factor 1 receptor (Homo sapiens) (UniProt P07333); assay: Selectivity interaction (KinomeScan (DiscoverX)) EUB0001581a CSF1R
[9] = molecular target: Phosphatidylinositol 3-kinase C2 domain-containing subunit gamma (Homo sapiens) (UniProt O75747); assay: Selectivity interaction (KinomeScan (DiscoverX)) EUB0001581a PIK3C2G
[10] = molecular target: Serine/threonine-protein kinase VRK2 (Homo sapiens) (UniProt Q86Y07); assay: Selectivity interaction (KinomeScan (DiscoverX)) EUB0001581a VRK2
[11] = molecular target: Phosphatidylinositol 4-phosphate 5-kinase type-1 gamma (Homo sapiens) (UniProt O60331); assay: Selectivity interaction (KinomeScan (DiscoverX)) EUB0001581a PIP5K1C
[12] = molecular target: Serine/threonine-protein kinase D2 (Homo sapiens) (UniProt Q9BZL6); assay: Selectivity interaction (KinomeScan (DiscoverX)) EUB0001581a PRKD2
[13] = molecular target: Serine/threonine-protein kinase TAO3 (Homo sapiens) (UniProt Q9H2K8); assay: Selectivity interaction (KinomeScan (DiscoverX)) EUB0001581a TAOK3
[14] = molecular target: Myosin-IIIa (Homo sapiens) (UniProt Q8NEV4); assay: Selectivity interaction (KinomeScan (DiscoverX)) EUB0001581a MYO3A
[15] = molecular target: Atypical kinase COQ8A, mitochondrial (Homo sapiens, UniProt Q8NI60); assay: Selectivity interaction (KinomeScan (DiscoverX)) EUB0001581a ADCK3
[16] = molecular target: Myosin-IIIb (Homo sapiens) (UniProt Q8WXR4); assay: Selectivity interaction (KinomeScan (DiscoverX)) EUB0001581a MYO3B
[17] = molecular target: Ribosomal protein S6 kinase alpha-4 (Homo sapiens) (UniProt O75676); assay: Selectivity interaction (KinomeScan (DiscoverX)) EUB0001581a RPS6KA4
[18] = molecular target: Cyclin-dependent kinase 5 (Homo sapiens, UniProt Q00535); assay: Selectivity interaction (KinomeScan (DiscoverX)) EUB0001581a CDK5
[19] = molecular target: Mitogen-activated protein kinase kinase kinase 13 (Homo sapiens) (UniProt O43283); assay: Selectivity interaction (KinomeScan (DiscoverX)) EUB0001581a MAP3K13
[20] = molecular target: Casein kinase I isoform gamma-3 (Homo sapiens) (UniProt Q9Y6M4); assay: Selectivity interaction (KinomeScan (DiscoverX)) EUB0001581a CSNK1G3
[21] = molecular target: Serine/threonine-protein kinase/endoribonuclease IRE1 (Homo sapiens) (UniProt O75460); assay: Selectivity interaction (KinomeScan (DiscoverX)) EUB0001581a ERN1
[22] = molecular target: cGMP-dependent protein kinase 1 (Homo sapiens) (UniProt Q13976); assay: Selectivity interaction (KinomeScan (DiscoverX)) EUB0001581a PRKG1
[23] = molecular target: TGF-beta receptor type-2 (Homo sapiens) (UniProt P37173); assay: Selectivity interaction (KinomeScan (DiscoverX)) EUB0001581a TGFBR2
[24] = molecular target: SNF-related serine/threonine-protein kinase (Homo sapiens) (UniProt Q9NRH2); assay: Selectivity interaction (KinomeScan (DiscoverX)) EUB0001581a SNRK
[25] = molecular target: Serine/threonine-protein kinase SIK2 (Homo sapiens) (UniProt Q9H0K1); assay: Selectivity interaction (KinomeScan (DiscoverX)) EUB0001581a SIK2
[26] = molecular target: Muscle, skeletal receptor tyrosine-protein kinase (Homo sapiens) (UniProt O15146); assay: Selectivity interaction (KinomeScan (DiscoverX)) EUB0001581a MUSK
[27] = molecular target: Proto-oncogene tyrosine-protein kinase ROS (Homo sapiens) (UniProt P08922); assay: Selectivity interaction (KinomeScan (DiscoverX)) EUB0001581a ROS1
[28] = molecular target: Serine/threonine-protein kinase 32A (Homo sapiens) (UniProt Q8WU08); assay: Selectivity interaction (KinomeScan (DiscoverX)) EUB0001581a STK32A
[29] = molecular target: Mitogen-activated protein kinase 7 (Homo sapiens) (UniProt Q13164); assay: Selectivity interaction (KinomeScan (DiscoverX)) EUB0001581a MAPK7
[30] = molecular target: Ribosomal protein S6 kinase alpha-6 (Homo sapiens, UniProt Q9UK32); assay: Selectivity interaction (KinomeScan (DiscoverX)) EUB0001581a RPS6KA6
[31] = molecular target: Cyclin-dependent kinase 11B (Homo sapiens) (UniProt P21127); assay: Selectivity interaction (KinomeScan (DiscoverX)) EUB0001581a CDK11B
[32] = molecular target: Tyrosine-protein kinase Fes/Fps (Homo sapiens) (UniProt P07332); assay: Selectivity interaction (KinomeScan (DiscoverX)) EUB0001581a FES
[33] = molecular target: Ribosomal protein S6 kinase alpha-5 (Homo sapiens) (UniProt O75582); assay: Selectivity interaction (KinomeScan (DiscoverX)) EUB0001581a RPS6KA5
[34] = molecular target: Dual specificity mitogen-activated protein kinase kinase 1 (Homo sapiens, UniProt Q02750); assay: Selectivity interaction (KinomeScan (DiscoverX)) EUB0001581a MAP2K1
[35] = molecular target: Mitogen-activated protein kinase kinase kinase 10 (Homo sapiens) (UniProt Q02779); assay: Selectivity interaction (KinomeScan (DiscoverX)) EUB0001581a MAP3K10
[36] = molecular target: Insulin-like growth factor 1 receptor (Homo sapiens, UniProt P08069); assay: Selectivity interaction (KinomeScan (DiscoverX)) EUB0001581a IGF1R
[37] = molecular target: Tyrosine-protein kinase ABL2 (Homo sapiens, UniProt P42684); assay: Selectivity interaction (KinomeScan (DiscoverX)) EUB0001581a ABL2
[38] = molecular target: Aurora kinase B (Homo sapiens, UniProt Q96GD4); assay: Selectivity interaction (KinomeScan (DiscoverX)) EUB0001581a AURKB

Question: `C[C@@H]1C[C@H](N)C[C@H](c2ccncc2NC(=O)c2ccc(F)c(-c3c(F)cccc3F)n2)C1` was tested. Which % of control [1] did it give?
Answer: 100%

Question: What about the % of control [2] of the same compound?
Answer: 90%

Question: And the % of control [3]?
Answer: 100%

Question: And the % of control [4]?
Answer: 90%

Question: And the % of control [5]?
Answer: 99%

Question: What about the % of control [6] of the same compound?
Answer: 97%

Question: What about the % of control [7] of the same compound?
Answer: 84%

Question: And the % of control [8]?
Answer: 81%

Question: What about the % of control [9] of the same compound?
Answer: 100%

Question: And the % of control [10]?
Answer: 100%

Question: What about the % of control [11] of the same compound?
Answer: 100%

Question: What about the % of control [12] of the same compound?
Answer: 43%

Question: And the % of control [13]?
Answer: 40%

Question: And the % of control [14]?
Answer: 100%

Question: And the % of control [15]?
Answer: 83%

Question: What about the % of control [16] of the same compound?
Answer: 100%

Question: What about the % of control [17] of the same compound?
Answer: 90%

Question: And the % of control [18]?
Answer: 100%

Question: And the % of control [19]?
Answer: 98%

Question: What about the % of control [20] of the same compound?
Answer: 82%

Question: And the % of control [21]?
Answer: 100%

Question: And the % of control [22]?
Answer: 84%

Question: What about the % of control [23] of the same compound?
Answer: 100%

Question: And the % of control [24]?
Answer: 75%

Question: And the % of control [25]?
Answer: 100%

Question: And the % of control [26]?
Answer: 100%

Question: And the % of control [27]?
Answer: 100%

Question: What about the % of control [28] of the same compound?
Answer: 92%

Question: And the % of control [29]?
Answer: 100%

Question: And the % of control [30]?
Answer: 100%

Question: And the % of control [31]?
Answer: 92%

Question: And the % of control [32]?
Answer: 100%

Question: And the % of control [33]?
Answer: 100%

Question: And the % of control [34]?
Answer: 100%

Question: And the % of control [35]?
Answer: 100%

Question: And the % of control [36]?
Answer: 100%

Question: What about the % of control [37] of the same compound?
Answer: 100%

Question: What about the % of control [38] of the same compound?
Answer: 98%
